Laboratory results taken from PubChem BioAssay (NCATS).
Values joined by “and” are separate entries in the source; they are usually repeats but may differ in a detail not shown here. Identical values can stand only once. Some of the results follow. These are further read-outs of the screen, such as a control signal, another cell line or another target. No call is given for them. For some of these results: Most of these compounds were active or inconclusive in the main read-out, so they are no random draw. Potencies come from curve fits of mixed quality, noted in brackets.

Assays:
[1] = Validation of Assay for Modulators of Lamin A Splicing (AID 1459); settings: Lamin A splicing dual RFP/GFP fluorescence reporter, ratio
Outline: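 S3 HeLa cells stably expressing a lamin A-EGFP splicing minigene and DsRed2 were seeded at 600 cells/well in Opti-MEM with 2% FBS, pin-dosed, and incubated 48 hrs at 37 °C, 5% CO2. Laser-scanning cytometry (488 nm) gave GFP/RFP total intensity ratio.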

[2] = qHTS Assay for Lipid Storage Modulators (AID 1519); settings: Drosophila S3 cells, BODIPY lipid droplet/cell ratio, laser cytometry, cells loaded with oleic acid
Outline: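 Cells seeded at 5,000 per well were treated with compounds over a concentration series and loaded with oleic acid (400 uM, as added). Lipid droplet fluorescence (488 nm excitation, 500-530 nm channel) was read by laser-scanning cytometry and normalized to 20 uM Triacsin C.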

[3] = qHTS Validation Assay to Find Inhibitors of Chronic Active B-Cell Receptor Signaling (AID 485345); settings: ABC-DLBCL cells, chronic BCR signaling reporter; measured here: CBR control luciferase (viability counter)
Outline: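 TMD8 ABC-DLBCL cells with dox-inducible green luciferase–IκBα fusion and red native luciferase; compounds 46 uM–3 nM, 4 h at 37C with doxycycline in 0.5% FBS IMDM. Green/red ratio normalized to basal and 10 uM MG-132.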

[4] = Nrf2 qHTS screen for inhibitors: Validation (AID 493153); settings: A549 ARE-Fluc reporter, 18-24 h; AC50: CellTiter-Fluor fluorescence read, measured here: cytotoxicity CellTiter-Fluor AC50; viability change: measured here: cytotoxicity max response
Outline: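 Dose-response validation uses reporter A549 cells with firefly luciferase under an antioxidant response element. Compounds stay on cells 18-24 h at 37°C, and luminescence indicates Nrf2-driven transcription.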

[5] = qHTS Assay for Modulators of Human Peripheral Myelin Protein 22 (PMP22) Expression/Activity (AID 1967); settings: Cell-based PMP22 reporter, dual-color luciferase ratio
Outline: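 MSC80 mouse Schwann cells stably carrying Pmp22 promoter–green click beetle luciferase plus EF-alpha–red luciferase control were dosed for 24h at 37 °C. Dual-colour luminescence was filter-overlap corrected; %Activity came from green/red ratio versus untreated cells.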

[6] = qHTS drug screen for cell cycle checkpoint inhibitors in PARPi-resistant BRCA-mutant ovarian cancer cell lines. (AID 1963452); settings: PEO1/OlaR viability, CellTiter-Glo luminescence, 96 h
Outline: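 PEO1, PEO4 and PEO1/OlaR ovarian cancer cells, 600 per well, exposed 96 h at 37C to a dilution series. Viability read by CellTiter-Glo luminescence, normalized to DMSO and empty wells; activity summarized as Z-AUC.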

[7] = qHTS for identification of novel therapeutic agents for treatment of microphthalmiaassociated transcription factor (MiT) renal cell carcinoma (RCC) (AID 1963991); settings: TFE3-RCC viability, CellTiter-Glo, 48 h
Outline: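 Three TFE3-fusion RCC cell lines (UOK109, UOK124, UOK145), 500 cells/well, were exposed to the 1912-compound MIPE 4.0 library for 48 hours at 37 C. Viability was read by CellTiter-Glo luminescence, normalised to DMSO (100%) and empty wells (0%), with 11-concentration curve fits.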

[8] = measured here: cell count channel max response
[9] = measured here: lipid channel max response
[10] = measured here: cell number channel AC50
[11] = measured here: lipid (BODIPY) channel AC50
[12] = measured here: green reporter channel AC50, mouse Pmp22 promoter in mouse Schwann cells
[13] = measured here: red reporter channel AC50, EF-alpha promoter control reporter in MSC80 mouse Schwann cells

COc1cc([C@@H]2c3cc4c(cc3[C@H](O)C3COC(=O)[C@@H]32)OCO4)cc(OC)c1OC (some centres undefined)
AC50 ([1]; measured here: GFP channel): 44.7 nM [falling, full curve]
AC50 ([1]; measured here: RFP channel): 50.1 nM [falling, full curve]
max response [2, 8]: 50.3%
max response [2, 9]: 52.2%
AC50 [3]: 103 nM [rising, full curve]
AC50 [4]: 13 nM [falling, full curve]
viability change [4]: -27.3%

CC[C@@]1(O)C(=O)OCc2c1cc1n(c2=O)Cc2cc3ccccc3nc2-1
AC50 ([1]; measured here: GFP channel): 15.8 nM [falling, full curve, poor fit]
AC50 ([1]; measured here: RFP channel): 15.8 nM [falling, full curve, poor fit]
max response [2, 8]: -20.8% and 25.8% and -65.9%
AC50 [2, 10]: 22.4 µM [falling, partial curve, poor fit]
AC50 [2, 11]: 200 nM [falling, full curve, poor fit] and 20 µM [falling, partial curve, poor fit]
max response [2, 9]: -32.9% and 25.2% and -67.6%
AC50 [5, 12]: 2130 nM [falling, full curve]
AC50 [5, 13]: 239 nM [falling, full curve]
AC50 [3]: 1460 nM [falling, full curve]
AC50 ([6]; measured here: PEO1 parental viability): 17.4 nM [falling, full curve]
AC50 ([6]; measured here: PEO4 viability): 54.9 nM [falling, full curve]
AC50 ([7]; measured here: UOK124 cell viability): 118 nM [falling, full curve]
AC50 ([7]; measured here: UOK145 cell viability): 66.2 nM [falling, full curve]

CN1C2CCC1CC(OC(c1ccccc1)c1ccc(Cl)cc1)C2 (centres undefined)
AC50 ([1]; measured here: GFP channel): 15800 nM [falling, single point]
AC50 ([1]; measured here: RFP channel): 22400 nM [falling, partial curve]
AC50 [5, 12]: 16900 nM [falling, full curve]
AC50 [5, 13]: 15100 nM [falling, full curve]

COc1cc(OC)c(/C=C2/C(=O)Nc3ccccc32)c(OC)c1
AC50 ([1]; measured here: GFP channel): 22400 nM [falling, single point]
AC50 ([1]; measured here: RFP channel): 22400 nM [falling, single point]
AC50 [5, 13]: 15100 nM [falling, full curve, poor fit]

S=C(S)N1CCCC1
AC50 ([1]; measured here: GFP channel): 631 nM [falling, full curve]
AC50 ([1]; measured here: RFP channel): 501 nM [falling, full curve, poor fit]
max response [2, 8]: 64.4% and 35.7%
AC50 [2, 10]: 15.8 µM [rising, full curve] and 39.8 µM [rising, single point]
AC50 [2, 11]: 14.1 µM [rising, partial curve, poor fit] and 39.8 µM [rising, single point]
max response [2, 9]: 15.4% and 34.2%
AC50 [5, 12]: 6010 nM [falling, full curve]
